Laboratory results: PubChem BioAssay AID504744 (Drosophila RNAi Screening Center, 2011)

Assay: 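Identify dsRNAs that increase or decrease phospho-dAkt after insulin treatment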 (primary screen)
Cells: Drosophila Kc167 cells
Reagent: long dsRNA against Drosophila genes, 250 ng dsRNA per well of a 384-well plate
Time to read-out: 3 days of knock-down, then overnight serum-free starvation before stimulation
Treatment: bovine insulin at 387 nM for 10 minutes after 12 h without serum
Detection: 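Per-well phospho-dAkt level from an in-cell fluorescent antibody stain, divided by a DNA-dye signal; log2 residuals turned into z-scores that take cell number into account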
Rule for the call: 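Hit in the insulin screen when the two-replicate mean z-score is more extreme than plus or minus 2.5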
The deposit covers about 23,000 reagents; shown is a random part of those that have a named target and a result. In the full data, 98 (0.43%) are marked active. 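Only hit calls are given; the phospho-dAkt signals, z-scores and hit direction were not deposited.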 A plus sign joins genes that one reagent is predicted to hit. No sequences are given here.

The first 8 entries as a preview:
| gene | DRSC id | call |
| --- | --- | --- |
| LeuRS (GeneID 326262) | DRSC00581 | inactive |
| Culd (GeneID 38946) | DRSC10262 | inactive |
| CG6425 (GeneID 43216) | DRSC16038 | inactive |
| Srp72 (GeneID 42439) | DRSC15800 | active |
| ndl (GeneID 38738) | DRSC11374 | inactive |
| wapl (GeneID 31187) | DRSC18851 | inactive |
| CG13693 (GeneID 33187) | DRSC00362 | inactive |
| CG11345 (GeneID 38548) | DRSC08176 | inactive |

The listing, from the start:
| gene | DRSC id | call |
| --- | --- | --- |
| LeuRS (GeneID 326262) | DRSC00581 | inactive |
| Culd (GeneID 38946) | DRSC10262 | inactive |
| CG6425 (GeneID 43216) | DRSC16038 | inactive |
| Srp72 (GeneID 42439) | DRSC15800 | active |
| ndl (GeneID 38738) | DRSC11374 | inactive |
| wapl (GeneID 31187) | DRSC18851 | inactive |
| CG13693 (GeneID 33187) | DRSC00362 | inactive |
| CG11345 (GeneID 38548) | DRSC08176 | inactive |
| CG6574 (GeneID 41308) | DRSC16070 | inactive |
| CG5850 (GeneID 34327) | DRSC02905 | inactive |
| CG33679 (GeneID 3772494) | DRSC01436 | inactive |
| HemK2 + Snapin | DRSC00736 | inactive |
| HemK2 + Snapin | DRSC00737 | inactive |
| CG1275 (GeneID 38286) | DRSC08294 | inactive |
| Sr-CI (GeneID 33621) | DRSC00790 | inactive |
| Ir10a (GeneID 32067) | DRSC18891 | inactive |
| Ir10a (GeneID 32067) | DRSC19478 | inactive |
| Ir10a (GeneID 32067) | DRSC19479 | inactive |
| Burs (GeneID 42560) | DRSC14595 | inactive |
| mRpL4 (GeneID 49425) | DRSC03562 | inactive |
| CG32808 (GeneID 318221) | DRSC17689 | inactive |
| CG3687 (GeneID 36803) | DRSC06850 | inactive |
| CG9331 (GeneID 35347) | DRSC03206 | inactive |
| hydra (GeneID 33058) | DRSC20497 | inactive |
| Trxr2 (GeneID 40475) | DRSC11900 | inactive |
| conu (GeneID 3355133) | DRSC07810 | inactive |
| CG13365 (GeneID 31005) | DRSC17899 | inactive |
| Or45b (GeneID 35980) | DRSC07488 | inactive |
| CG6567 + CG4565 | DRSC15599 | inactive |
| Tango2 (GeneID 32319) | DRSC19394 | inactive |
| Tango2 (GeneID 32319) | DRSC21526 | inactive |
| CG6583 (GeneID 34645) | DRSC02972 | inactive |
| CG10055 (GeneID 40862) | DRSC12503 | inactive |
| CG42673 (GeneID 39111) | DRSC08989 | inactive |
| CG42673 (GeneID 39111) | DRSC08991 | inactive |
| CG42673 (GeneID 39111) | DRSC10177 | inactive |
| CG42673 (GeneID 39111) | DRSC10264 | inactive |
| CG42673 (GeneID 39111) | DRSC10353 | inactive |
| CG42673 (GeneID 39111) | DRSC10354 | inactive |
| CG13151 (GeneID 36374) | DRSC06276 | inactive |
| Abcd1 (GeneID 43772) | DRSC17157 | inactive |
| CG14292 (GeneID 42264) | DRSC14772 | inactive |
| Orcokinin (GeneID 37806) | DRSC04202 | inactive |
| CG13712 (GeneID 38574) | DRSC08321 | inactive |
| Cp110 (GeneID 33136) | DRSC20630 | inactive |
| Cp110 (GeneID 33136) | DRSC21716 | inactive |
| TyrRS-m (GeneID 37965) | DRSC04286 | inactive |
| PK2-R1 (GeneID 41639) | DRSC16447 | inactive |
| CG18585 (GeneID 34041) | DRSC02678 | inactive |
| CG10616 (GeneID 39420) | DRSC09750 | inactive |
| CG15706 (GeneID 36799) | DRSC06577 | inactive |
| Sol1 (GeneID 41513) | DRSC15263 | inactive |
| Sol1 (GeneID 41513) | DRSC15271 | inactive |
| Sol1 (GeneID 41513) | DRSC15681 | inactive |
| CG43339 + CG43338 | DRSC02466 | inactive |
| CG34282 (GeneID 42248) | DRSC16298 | inactive |
| Cdc50 (GeneID 32615) | DRSC20224 | inactive |
| CG15635 (GeneID 33665) | DRSC00470 | inactive |
| CG15635 (GeneID 33665) | DRSC22873 | inactive |
| CG9121 (GeneID 33732) | DRSC03142 | inactive |
| CG6034 (GeneID 39974) | DRSC10572 | inactive |
| CG11291 (GeneID 37541) | DRSC04097 | inactive |
| CG34429 (GeneID 5740606) | DRSC10120 | inactive |
| CG12486 (retired record) (GeneID 39729) | DRSC09888 | inactive |
